Laboratory results reported in PMC4735476, “Dataset concerning GroEL chaperonin interaction with proteins” (Data in Brief, 2016).
No constants are given. Whether binding was seen depends on the method and setting. Some results given as binding are weak or reduced against the parent protein; the word gives no strength.

Sequences of proteins named here, by UniProt entry; tags and fusion partners are left off. Residues count along the entry.
UniProt P00791, residues 60-385: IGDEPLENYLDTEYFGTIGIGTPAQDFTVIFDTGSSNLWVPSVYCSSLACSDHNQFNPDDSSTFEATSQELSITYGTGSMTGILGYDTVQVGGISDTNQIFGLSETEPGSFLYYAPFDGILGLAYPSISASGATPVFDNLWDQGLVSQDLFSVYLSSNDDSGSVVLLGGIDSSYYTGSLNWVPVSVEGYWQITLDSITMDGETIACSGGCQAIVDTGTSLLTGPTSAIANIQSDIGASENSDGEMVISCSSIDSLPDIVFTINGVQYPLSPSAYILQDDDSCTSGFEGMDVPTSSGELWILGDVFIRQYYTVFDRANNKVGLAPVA
UniProt P0A6F5: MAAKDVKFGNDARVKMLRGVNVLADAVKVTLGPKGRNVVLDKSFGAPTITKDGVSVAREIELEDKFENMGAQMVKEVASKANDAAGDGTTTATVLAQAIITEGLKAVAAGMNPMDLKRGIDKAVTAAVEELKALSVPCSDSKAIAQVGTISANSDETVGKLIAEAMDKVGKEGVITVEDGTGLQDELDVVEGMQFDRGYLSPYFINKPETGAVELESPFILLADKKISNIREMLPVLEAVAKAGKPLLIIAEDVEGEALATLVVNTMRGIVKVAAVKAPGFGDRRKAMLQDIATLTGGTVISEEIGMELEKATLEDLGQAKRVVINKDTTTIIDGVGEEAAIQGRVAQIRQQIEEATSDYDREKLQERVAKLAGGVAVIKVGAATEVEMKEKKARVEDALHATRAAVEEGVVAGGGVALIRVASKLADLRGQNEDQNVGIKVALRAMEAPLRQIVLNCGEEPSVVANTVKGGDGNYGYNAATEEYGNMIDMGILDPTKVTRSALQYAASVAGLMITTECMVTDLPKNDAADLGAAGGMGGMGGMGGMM

Tests used:
[1] = target: pepsin from porcine gastric mucosa, covalently immobilized to BrCN-Sepharose (porcine) (UniProt P00791); assay: affinity chromatography; denatured pepsin immobilized on BrCN-Sepharose (2 ml sorbent); GroEL loaded in 20 mM Tris–HCl, pH 7.5, 300 mM NaCl, 10 mM MgCl2; elution with 20 mM Tris–HCl, pH 7.5; fractions read by SDS gel electrophoresis and ATPase activity; both purified
[2] = target: pepsin from porcine gastric mucosa, covalently immobilized to BrCN-Sepharose (porcine) (UniProt P00791); assay: condition: only at a low ionic strength (20 mM Tris–HCl); affinity chromatography; denatured pepsin immobilized on BrCN-Sepharose (2 ml sorbent); GroEL loaded in 20 mM Tris–HCl, pH 7.5 (low ionic strength); elution with 8 M urea; fractions read by SDS gel electrophoresis and ATPase activity; both purified
[3] = target: T1, fluorescein-labeled human α-lactalbumin (human) (UniProt P00709); assay: condition: only native state at a low ionic strength (20 mM Tris–HCl, pH 7.5); fluorescence polarisation; 30×10^-9 M native fluorescein-labeled protein titrated with GroEL at a low ionic strength (20 mM Tris–HCl, pH 7.5); fluorescence anisotropy, excitation 490 nm, emission 520 nm; apparent constant, counted on GroEL cavities (doubled GroEL concentration); both purified
T1 sequence (chain, fluorescein label (fluorescein isothiocyanate), position not stated): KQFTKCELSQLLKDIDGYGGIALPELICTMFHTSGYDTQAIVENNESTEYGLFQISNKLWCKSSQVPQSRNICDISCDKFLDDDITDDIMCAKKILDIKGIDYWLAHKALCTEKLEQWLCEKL

binding [1]: binds | binding [2]: no binding | binding [3]: no binding
Substance: GroEL chaperonin (from UniProt P0A6F5 1-548)
